# The other results are listed elsewhere or left out. Most entries show no effect beyond the scatter of the controls.
# The chains behind the UniProt entries cited, without tags or fusion partners. Where a name states a change or a piece, a line headed by the entry shows the natural chain unless it says otherwise.
# UniProt O00487, whole entry: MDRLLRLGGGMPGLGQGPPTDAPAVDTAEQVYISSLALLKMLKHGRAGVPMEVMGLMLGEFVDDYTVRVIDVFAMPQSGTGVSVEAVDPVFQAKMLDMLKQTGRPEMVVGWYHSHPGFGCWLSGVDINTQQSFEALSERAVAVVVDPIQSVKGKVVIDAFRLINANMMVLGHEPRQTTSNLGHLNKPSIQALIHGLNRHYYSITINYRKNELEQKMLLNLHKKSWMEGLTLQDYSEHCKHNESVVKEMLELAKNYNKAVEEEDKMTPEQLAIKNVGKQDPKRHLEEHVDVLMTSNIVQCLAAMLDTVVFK
# UniProt G2XKQ0: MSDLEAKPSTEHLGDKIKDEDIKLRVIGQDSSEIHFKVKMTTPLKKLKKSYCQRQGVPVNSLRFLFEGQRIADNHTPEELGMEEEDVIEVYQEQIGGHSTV
# UniProt O14508, whole entry: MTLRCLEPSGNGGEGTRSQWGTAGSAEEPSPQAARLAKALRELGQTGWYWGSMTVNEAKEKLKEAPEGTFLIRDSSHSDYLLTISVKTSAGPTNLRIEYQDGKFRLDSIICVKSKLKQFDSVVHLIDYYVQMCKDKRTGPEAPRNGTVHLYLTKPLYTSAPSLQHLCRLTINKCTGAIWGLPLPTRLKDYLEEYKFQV
# UniProt A8MXV4: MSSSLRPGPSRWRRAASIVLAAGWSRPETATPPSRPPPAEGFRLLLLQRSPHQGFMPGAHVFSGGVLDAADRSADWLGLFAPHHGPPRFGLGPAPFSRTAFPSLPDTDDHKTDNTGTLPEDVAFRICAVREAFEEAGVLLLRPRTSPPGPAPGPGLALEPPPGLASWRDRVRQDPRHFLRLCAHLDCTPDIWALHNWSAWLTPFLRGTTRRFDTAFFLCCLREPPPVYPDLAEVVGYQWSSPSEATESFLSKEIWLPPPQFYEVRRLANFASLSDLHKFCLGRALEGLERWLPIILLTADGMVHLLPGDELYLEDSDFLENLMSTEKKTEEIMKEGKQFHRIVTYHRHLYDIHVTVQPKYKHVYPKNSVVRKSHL
# UniProt O14980, whole entry: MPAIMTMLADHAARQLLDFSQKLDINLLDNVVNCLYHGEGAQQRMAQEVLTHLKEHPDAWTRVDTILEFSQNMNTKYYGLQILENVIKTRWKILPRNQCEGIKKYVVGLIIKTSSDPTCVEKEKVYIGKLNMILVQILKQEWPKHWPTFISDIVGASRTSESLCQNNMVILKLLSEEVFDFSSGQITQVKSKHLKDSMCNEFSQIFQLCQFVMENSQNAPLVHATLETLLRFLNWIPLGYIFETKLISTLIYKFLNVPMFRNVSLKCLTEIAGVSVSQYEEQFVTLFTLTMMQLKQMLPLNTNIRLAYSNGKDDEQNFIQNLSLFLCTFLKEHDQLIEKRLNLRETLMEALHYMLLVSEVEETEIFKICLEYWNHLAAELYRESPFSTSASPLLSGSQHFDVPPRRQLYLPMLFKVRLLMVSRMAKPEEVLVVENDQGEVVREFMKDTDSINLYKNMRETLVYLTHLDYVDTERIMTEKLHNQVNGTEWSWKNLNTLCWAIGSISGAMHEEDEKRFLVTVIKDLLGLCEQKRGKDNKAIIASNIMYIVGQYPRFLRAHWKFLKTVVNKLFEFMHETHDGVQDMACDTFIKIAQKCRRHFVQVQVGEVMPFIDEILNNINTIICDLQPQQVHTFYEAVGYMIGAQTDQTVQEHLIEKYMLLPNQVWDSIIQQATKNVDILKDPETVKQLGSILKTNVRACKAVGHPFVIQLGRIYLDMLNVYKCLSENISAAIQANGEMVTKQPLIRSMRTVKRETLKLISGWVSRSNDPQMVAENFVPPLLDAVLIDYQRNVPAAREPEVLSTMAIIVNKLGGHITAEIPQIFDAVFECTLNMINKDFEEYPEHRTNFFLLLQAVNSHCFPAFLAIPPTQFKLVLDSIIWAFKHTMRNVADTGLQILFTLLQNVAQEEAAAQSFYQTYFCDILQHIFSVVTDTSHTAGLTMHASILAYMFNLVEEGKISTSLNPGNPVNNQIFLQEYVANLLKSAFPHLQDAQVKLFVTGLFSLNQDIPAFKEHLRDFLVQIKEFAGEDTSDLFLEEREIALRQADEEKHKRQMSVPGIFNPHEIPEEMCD
# UniProt O00244: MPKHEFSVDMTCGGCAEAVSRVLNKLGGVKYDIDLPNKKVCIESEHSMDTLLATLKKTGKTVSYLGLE
# UniProt A8MQ14: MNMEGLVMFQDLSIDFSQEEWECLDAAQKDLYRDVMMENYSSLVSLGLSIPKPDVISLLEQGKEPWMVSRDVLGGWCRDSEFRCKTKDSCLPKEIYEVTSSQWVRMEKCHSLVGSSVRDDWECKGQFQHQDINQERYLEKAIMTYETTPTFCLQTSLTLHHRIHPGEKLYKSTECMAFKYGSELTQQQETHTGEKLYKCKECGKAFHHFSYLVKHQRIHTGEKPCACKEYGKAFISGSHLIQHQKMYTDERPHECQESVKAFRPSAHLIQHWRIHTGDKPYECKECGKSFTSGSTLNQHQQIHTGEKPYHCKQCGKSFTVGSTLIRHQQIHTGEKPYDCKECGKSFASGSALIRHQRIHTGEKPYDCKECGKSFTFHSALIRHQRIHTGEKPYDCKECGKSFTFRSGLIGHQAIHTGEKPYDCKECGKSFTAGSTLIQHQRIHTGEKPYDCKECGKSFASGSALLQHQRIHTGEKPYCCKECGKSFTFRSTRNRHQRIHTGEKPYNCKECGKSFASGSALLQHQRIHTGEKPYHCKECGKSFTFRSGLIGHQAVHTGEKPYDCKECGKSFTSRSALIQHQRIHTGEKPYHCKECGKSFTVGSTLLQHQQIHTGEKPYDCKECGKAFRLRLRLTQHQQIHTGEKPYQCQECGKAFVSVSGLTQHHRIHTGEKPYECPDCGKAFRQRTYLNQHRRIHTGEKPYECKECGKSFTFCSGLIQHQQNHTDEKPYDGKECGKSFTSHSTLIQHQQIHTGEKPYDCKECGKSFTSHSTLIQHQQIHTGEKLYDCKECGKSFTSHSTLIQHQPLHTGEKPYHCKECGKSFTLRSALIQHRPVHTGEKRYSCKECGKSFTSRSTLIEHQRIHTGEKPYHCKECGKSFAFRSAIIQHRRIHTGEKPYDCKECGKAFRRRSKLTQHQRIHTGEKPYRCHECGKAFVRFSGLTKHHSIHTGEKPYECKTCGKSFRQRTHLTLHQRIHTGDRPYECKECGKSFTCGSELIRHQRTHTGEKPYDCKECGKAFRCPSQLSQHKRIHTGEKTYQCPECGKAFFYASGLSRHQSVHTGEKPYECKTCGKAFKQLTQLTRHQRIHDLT
# UniProt B2RBV5: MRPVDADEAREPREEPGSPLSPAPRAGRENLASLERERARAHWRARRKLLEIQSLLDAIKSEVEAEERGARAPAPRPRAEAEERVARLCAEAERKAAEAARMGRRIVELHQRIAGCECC
# UniProt A8K8P3: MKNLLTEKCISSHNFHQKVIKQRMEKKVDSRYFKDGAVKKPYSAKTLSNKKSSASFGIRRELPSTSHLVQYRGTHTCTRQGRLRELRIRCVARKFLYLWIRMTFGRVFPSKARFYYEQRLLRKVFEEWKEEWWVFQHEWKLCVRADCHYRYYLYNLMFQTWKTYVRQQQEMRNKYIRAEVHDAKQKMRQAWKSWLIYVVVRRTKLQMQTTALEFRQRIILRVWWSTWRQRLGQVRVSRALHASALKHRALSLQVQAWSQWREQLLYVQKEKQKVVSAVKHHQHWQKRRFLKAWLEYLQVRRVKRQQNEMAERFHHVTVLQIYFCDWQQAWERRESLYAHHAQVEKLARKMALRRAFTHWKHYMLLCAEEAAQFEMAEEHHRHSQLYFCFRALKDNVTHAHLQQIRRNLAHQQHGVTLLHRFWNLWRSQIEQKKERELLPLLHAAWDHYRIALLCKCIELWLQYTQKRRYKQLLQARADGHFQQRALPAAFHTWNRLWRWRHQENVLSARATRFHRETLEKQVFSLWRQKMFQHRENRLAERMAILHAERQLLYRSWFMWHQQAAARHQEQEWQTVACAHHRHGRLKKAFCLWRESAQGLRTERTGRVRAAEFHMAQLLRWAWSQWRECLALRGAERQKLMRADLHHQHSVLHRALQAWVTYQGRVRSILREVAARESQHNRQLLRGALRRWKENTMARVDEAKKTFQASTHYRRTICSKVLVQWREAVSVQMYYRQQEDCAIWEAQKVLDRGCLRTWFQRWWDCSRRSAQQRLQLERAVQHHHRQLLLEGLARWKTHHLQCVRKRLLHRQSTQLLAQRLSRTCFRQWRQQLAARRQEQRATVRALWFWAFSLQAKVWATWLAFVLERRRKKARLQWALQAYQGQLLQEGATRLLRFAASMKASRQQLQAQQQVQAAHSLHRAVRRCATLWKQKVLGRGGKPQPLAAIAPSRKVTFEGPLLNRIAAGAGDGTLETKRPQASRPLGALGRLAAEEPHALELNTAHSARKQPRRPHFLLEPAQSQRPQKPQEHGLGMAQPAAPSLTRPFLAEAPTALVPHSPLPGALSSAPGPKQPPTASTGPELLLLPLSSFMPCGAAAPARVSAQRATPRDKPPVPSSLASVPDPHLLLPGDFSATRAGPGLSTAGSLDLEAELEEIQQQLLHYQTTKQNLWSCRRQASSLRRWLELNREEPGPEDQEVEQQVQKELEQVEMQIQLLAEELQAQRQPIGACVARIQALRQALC
# UniProt O00329: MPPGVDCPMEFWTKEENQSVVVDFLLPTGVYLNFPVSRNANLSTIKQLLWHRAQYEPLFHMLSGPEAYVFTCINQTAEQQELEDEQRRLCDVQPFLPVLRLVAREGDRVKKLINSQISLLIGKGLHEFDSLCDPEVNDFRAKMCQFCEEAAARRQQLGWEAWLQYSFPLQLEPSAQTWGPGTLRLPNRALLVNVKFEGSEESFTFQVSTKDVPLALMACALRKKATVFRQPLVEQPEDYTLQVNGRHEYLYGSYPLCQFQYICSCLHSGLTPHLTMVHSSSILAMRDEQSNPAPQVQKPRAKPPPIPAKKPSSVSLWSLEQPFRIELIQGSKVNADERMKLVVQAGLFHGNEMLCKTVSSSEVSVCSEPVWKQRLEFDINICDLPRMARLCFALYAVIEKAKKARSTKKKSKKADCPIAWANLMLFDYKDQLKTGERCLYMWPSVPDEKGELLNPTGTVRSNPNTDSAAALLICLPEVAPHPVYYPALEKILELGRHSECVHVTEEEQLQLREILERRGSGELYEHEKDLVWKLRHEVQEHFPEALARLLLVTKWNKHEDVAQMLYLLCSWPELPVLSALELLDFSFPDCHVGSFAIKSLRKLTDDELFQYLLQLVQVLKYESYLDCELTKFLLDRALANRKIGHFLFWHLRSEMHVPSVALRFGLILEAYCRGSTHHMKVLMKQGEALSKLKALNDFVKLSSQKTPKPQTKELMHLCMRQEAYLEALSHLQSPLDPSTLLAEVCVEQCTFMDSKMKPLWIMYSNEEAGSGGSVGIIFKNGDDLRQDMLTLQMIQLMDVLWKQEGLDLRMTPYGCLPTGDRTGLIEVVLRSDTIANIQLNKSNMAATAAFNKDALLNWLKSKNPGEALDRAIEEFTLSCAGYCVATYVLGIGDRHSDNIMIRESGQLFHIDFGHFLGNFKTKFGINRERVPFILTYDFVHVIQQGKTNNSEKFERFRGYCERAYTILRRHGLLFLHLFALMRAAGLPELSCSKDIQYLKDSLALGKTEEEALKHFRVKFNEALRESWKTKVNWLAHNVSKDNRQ
# UniProt A6NFY7: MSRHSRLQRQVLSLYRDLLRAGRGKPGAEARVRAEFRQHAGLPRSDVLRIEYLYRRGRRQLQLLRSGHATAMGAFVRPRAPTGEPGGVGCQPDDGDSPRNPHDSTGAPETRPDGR
# UniProt O14948: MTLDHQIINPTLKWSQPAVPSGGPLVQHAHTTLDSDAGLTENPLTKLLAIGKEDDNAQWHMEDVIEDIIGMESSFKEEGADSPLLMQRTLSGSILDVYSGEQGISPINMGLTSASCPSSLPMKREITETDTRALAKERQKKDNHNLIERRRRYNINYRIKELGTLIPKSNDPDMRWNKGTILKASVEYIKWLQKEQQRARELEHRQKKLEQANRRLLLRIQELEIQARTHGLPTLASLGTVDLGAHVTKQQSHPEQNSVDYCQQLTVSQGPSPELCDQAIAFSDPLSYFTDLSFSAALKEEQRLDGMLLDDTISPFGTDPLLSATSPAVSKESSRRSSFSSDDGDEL
# UniProt O00584, whole entry: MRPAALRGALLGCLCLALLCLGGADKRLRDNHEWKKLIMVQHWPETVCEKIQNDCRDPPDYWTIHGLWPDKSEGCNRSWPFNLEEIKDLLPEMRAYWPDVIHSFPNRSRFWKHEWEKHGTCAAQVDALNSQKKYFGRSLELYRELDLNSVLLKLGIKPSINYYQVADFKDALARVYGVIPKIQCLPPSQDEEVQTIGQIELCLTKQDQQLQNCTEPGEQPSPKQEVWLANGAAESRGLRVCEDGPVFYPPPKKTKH
# UniProt O00559: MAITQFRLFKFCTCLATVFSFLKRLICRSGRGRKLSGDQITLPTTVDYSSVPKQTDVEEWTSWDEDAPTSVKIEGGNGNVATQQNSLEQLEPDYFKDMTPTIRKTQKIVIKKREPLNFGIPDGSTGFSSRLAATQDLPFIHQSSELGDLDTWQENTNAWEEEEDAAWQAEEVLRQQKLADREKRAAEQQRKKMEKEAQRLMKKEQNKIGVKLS
# Compound: CN[C@@H]1C[C@H]2O[C@@](C)([C@@H]1OC)n1c3ccccc3c3c4c(c5c6ccccc6n2c5c31)C(=O)NC4 [staurosporine]
# Test: log2 fold change of tryptic peptide abundance, ligand vs vehicle (limited proteolysis) (log2 ratio); higher = more trypsin-susceptible (destabilized)
# Settings: ligand concentration: 20 uM; sample: K562 cleared lysate; digestion: 4 min, 22 C (HT-PELSA RT4min, Orbitrap Astral)
row,Target,log2 fold change
1,"AP3D1 (peptide sequence: MFDKNLQDLVR, peptide start residue: 13) (UniProt O14617)",0.33
2,"UniProt O00487 (peptide sequence: AVAVVVDPIQSVKGK, peptide start residue: 140)",-0.551
3,"AIP (peptide sequence: YYDAIACLKNLQMK, peptide start residue: 202) (UniProt O00170)",-0.676
4,"UniProt G2XKQ0 (peptide sequence: VIGQDSSEIHFKVK, peptide start residue: 26)",-0.244
5,"UniProt A6NJ78 (peptide sequence: RAPLMWELIHK, peptide start residue: 370)",0.623
6,"POLR1C (peptide sequence: CFSPGVIEVQEVQGK, peptide start residue: 256) (UniProt O15160)",-0.297
7,"ZFP92 (peptide sequence: THRGEKPYACGQCAK, peptide start residue: 285) (UniProt A6NM28)",1.4
8,"PER2 (peptide sequence: SKGQPSER, peptide start residue: 766) (UniProt O15055)",-0.0732
9,"IPO8 (peptide sequence: QLVNREDR, peptide start residue: 880) (UniProt O15397)",0.215
10,"ARHGEF10 (peptide sequence: ESWVNSLQMAK, peptide start residue: 841) (UniProt O15013)",-0.628
11,"SOCS2 (peptide sequence: TSAGPTNLR, peptide start residue: 88) (UniProt O14508)",-0.115
12,"NUDT19 (peptide sequence: SPHQGFMPGAHVFSGGVLDAADR, peptide start residue: 50) (UniProt A8MXV4)",-0.816
13,"XPO1 (peptide sequence: LFEFMHETHDGVQDMACDTFIK, peptide start residue: 569) (UniProt O14980)",0.147
14,"UniProt O14543 (peptide sequence: VTQLPGPIR, peptide start residue: 207)",0.119
15,"HAX1 (peptide sequence: FHSPQHPPEEFGFGFSFSPGGGIR, peptide start residue: 51) (UniProt O00165)",-0.275
16,"ATOX1 (peptide sequence: PKHEFSVDMTCGGCAEAVSR, peptide start residue: 2) (UniProt O00244)",-0.505
17,"KPNA4 (peptide sequence: GRDLETMR, peptide start residue: 19) (UniProt O00629)",0.589
18,"UniProt O14715 (peptide sequence: YICTYINVQERDPK, peptide start residue: 48)",-0.247

row,Target,log2 fold change
1,"UniProt A8MQ14 (peptide sequence: SFTAGSTLIQHQR, peptide start residue: 429)",0.834
2,"NA (peptide sequence: IVELHQR, peptide start residue: 106) (UniProt B2RBV5)",0.343
3,"KPNA3 (peptide sequence: GRDVETMR, peptide start residue: 19) (UniProt O00505)",0.444
4,"UniProt A8K8P3 (peptide sequence: IAAGAGDGTLETK, peptide start residue: 963)",-0.357
5,"SCAMP1 (peptide sequence: EHALAQAELLK, peptide start residue: 79) (UniProt O15126)",-0.0296
6,"SOCS6 (peptide sequence: LANVPDGSFLVR, peptide start residue: 398) (UniProt O14544)",-0.237
7,"MDM4 (peptide sequence: ILHAAGAQGEMFTVK, peptide start residue: 36) (UniProt O15151)",0.262
8,"UniProt O14709 (peptide sequence: IHTDEKPCECDVSEK, peptide start residue: 979)",-0.279
9,"PIK3CD (peptide sequence: GSGELYEHEKDLVWK, peptide start residue: 519) (UniProt O00329)",-0.383
10,"DNM1L (peptide sequence: LLMHHIR, peptide start residue: 292) (UniProt O00429)",0.312
11,"BIN1 (peptide sequence: VNHEPEPAGGATPGATLPK, peptide start residue: 312) (UniProt O00499)",0.147
12,"UniProt A6NFY7 (peptide sequence: SGHATAMGAFVRPR, peptide start residue: 66)",0.334
13,"CCDC85C (peptide sequence: RLQQHLLEIR, peptide start residue: 59) (UniProt A6NKD9)",-0.538
14,"UniProt O14948 (peptide sequence: DNHNLIER, peptide start residue: 314)",0.141
15,"RNASET2 (peptide sequence: ELDLNSVLLK, peptide start residue: 144) (UniProt O00584)",-0.427
16,"UniProt O15042 (peptide sequence: KSNLELFK, peptide start residue: 201)",0.533
17,"SCAMP3 (peptide sequence: AQQEFAAGVFSNPAVR, peptide start residue: 314) (UniProt O14828)",0.15
18,"EBAG9 (peptide sequence: KREPLNFGIPDGSTGFSSR, peptide start residue: 112) (UniProt O00559)",-0.199

# Exported with bars between the fields: part of the list above.
row | Target | log2 fold change
5 | SCAMP1 (peptide sequence: EHALAQAELLK, peptide start residue: 79) (UniProt O15126) | -0.0296
17 | SCAMP3 (peptide sequence: AQQEFAAGVFSNPAVR, peptide start residue: 314) (UniProt O14828) | 0.15

# Source: the supplement of paper PMC12819154, “High-throughput peptide-centric local stability assay extends protein–ligand identification to membrane proteins, tissues and bacteria” (Nature Structural & Molecular Biology, 2025)
